Three molecules from publication PMC6102255, “EPO does not promote interaction between the erythropoietin and beta-common receptors” (Scientific Reports, 2018) can be followed below.

No constants are given. Whether binding was seen depends on the method and setting. Where a sequence is shown, tags or fusion partners need not be part of it.

Assay [1] has as its target T1, βc-His (extracellular regions of the βc receptor with C-terminal 6xHis tag) (UniProt P32927).
T1 sequence: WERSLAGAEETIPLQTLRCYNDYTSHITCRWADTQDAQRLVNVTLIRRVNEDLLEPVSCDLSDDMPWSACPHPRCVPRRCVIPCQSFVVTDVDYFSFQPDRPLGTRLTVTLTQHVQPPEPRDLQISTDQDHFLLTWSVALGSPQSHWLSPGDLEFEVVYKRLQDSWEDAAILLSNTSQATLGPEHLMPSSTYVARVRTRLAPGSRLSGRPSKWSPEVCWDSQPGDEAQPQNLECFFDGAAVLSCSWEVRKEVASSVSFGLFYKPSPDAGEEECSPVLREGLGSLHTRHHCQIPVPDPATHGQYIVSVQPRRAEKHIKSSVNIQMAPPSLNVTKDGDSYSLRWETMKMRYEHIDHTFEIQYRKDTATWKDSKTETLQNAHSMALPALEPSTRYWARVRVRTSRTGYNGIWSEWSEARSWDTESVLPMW
The experiment in a line: pull-down; EPOR-His or βc-His (20 μg) held on His-tag purification resin, washed (50 mM phosphate, 300 mM NaCl, 5 mM imidazole, pH 8), incubated 2 hr at room temperature with the untagged partner or with ARA290 alone; SDS-PAGE (coomassie) and mass spectrometry; both purified.

For assay [2], the target named is T2, EPOR-His (extracellular domains of EPOR with C-terminal 6xHis tag) (UniProt P19235).
T2 sequence: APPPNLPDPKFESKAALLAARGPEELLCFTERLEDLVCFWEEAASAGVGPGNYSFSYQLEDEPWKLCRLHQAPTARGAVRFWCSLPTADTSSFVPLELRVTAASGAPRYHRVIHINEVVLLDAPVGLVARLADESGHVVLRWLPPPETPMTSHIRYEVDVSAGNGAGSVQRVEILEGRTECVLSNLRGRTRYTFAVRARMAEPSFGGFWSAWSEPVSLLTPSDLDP
Described as above.

Assay [3] deals with T2, EPOR-His (extracellular domains of EPOR with C-terminal 6xHis tag). As to the kind of experiment: pull-down; EPOR-His or βc-His held on His-tag purification resin, incubated with the untagged partner in the presence of ARA290 (1:3 molar ratio of immobilised protein:ARA290), 2 hr at room temperature; SDS-PAGE (coomassie) and mass spectrometry; both purified.
Assay [4] concerns the target T1, βc-His (extracellular regions of the βc receptor with C-terminal 6xHis tag). Described as above.

Regarding EQLERALNSS (pyroglutamic acid (pE) at the N-terminus) [ARA290 peptide], the binding entry in assay [1] and in assay [2] was “no binding” each time.

B1: βc receptor extracellular regions, His tag cleaved by TEV protease (domain or fragment, UniProt P32927 17-443)
chain: WERSLAGAEETIPLQTLRCYNDYTSHITCRWADTQDAQRLVNVTLIRRVNEDLLEPVSCDLSDDMPWSACPHPRCVPRRCVIPCQSFVVTDVDYFSFQPDRPLGTRLTVTLTQHVQPPEPRDLQISTDQDHFLLTWSVALGSPQSHWLSPGDLEFEVVYKRLQDSWEDAAILLSNTSQATLGPEHLMPSSTYVARVRTRLAPGSRLSGRPSKWSPEVCWDSQPGDEAQPQNLECFFDGAAVLSCSWEVRKEVASSVSFGLFYKPSPDAGEEECSPVLREGLGSLHTRHHCQIPVPDPATHGQYIVSVQPRRAEKHIKSSVNIQMAPPSLNVTKDGDSYSLRWETMKMRYEHIDHTFEIQYRKDTATWKDSKTETLQNAHSMALPALEPSTRYWARVRVRTSRTGYNGIWSEWSEARSWDTESVLPMW
With B1, the binding result in assay [3] and in assay [2] was “no binding” each time.

B2: EPOR extracellular domains, His tag cleaved by TEV protease (domain or fragment, UniProt P19235 25-250)
chain: APPPNLPDPKFESKAALLAARGPEELLCFTERLEDLVCFWEEAASAGVGPGNYSFSYQLEDEPWKLCRLHQAPTARGAVRFWCSLPTADTSSFVPLELRVTAASGAPRYHRVIHINEVVLLDAPVGLVARLADESGHVVLRWLPPPETPMTSHIRYEVDVSAGNGAGSVQRVEILEGRTECVLSNLRGRTRYTFAVRARMAEPSFGGFWSAWSEPVSLLTPSDLDP
Regarding B2, in assay [4], the binding result is listed as “no binding”.
